Data taken from PubChem BioAssay AID1508623, deposited by NCATS (2021).

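Change in HTT-promoter-driven luminescence in engineered HEK293 reporter cells after a 24 h treatment, measured at one concentration. Percent change in reporter signal versus vehicle (0%) down to no light (-100%); more negative values mean stronger inhibition of promoter activity.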

Values are in %. Common to all entries: at 57.5 µM (top of the series). Only part of the assay is listed here, not a random draw.

SMILES | activity change (%)
Cc1ccc(-n2ncc(C(=O)N(C)Cc3ccccc3)c2-n2cccc2)cc1 | -53.09
Cc1oc2ccc(O)c(CN3CCOCC3)c2c1C(=O)Nc1cccc(C(F)(F)F)c1 | -40.54
Cc1ccc(Cl)cc1N1CCN(C(=O)C2CCN(S(=O)(=O)Cc3ccccc3)CC2)CC1 | -29.89
CCCOc1ccc(-c2nc(N3CCCCC3)c3ccccc3n2)cc1 | -8.38
CCCOc1ccc(NC(=O)CC2C(=O)N(c3ccc(Cl)cc3)C(=O)N2CCc2ccncc2)cc1 (stereo not drawn) | -1.673
Cc1ccc(-n2c(=O)[nH]c3ccc(Br)cc3c2=O)cc1 | -8.115
Cc1nn(-c2ccc(N3CCCCC3)nn2)c(C)c1CCC(=O)Nc1cccc(F)c1 | -11.91
Cn1c(=O)n(C)c2cc(N3CCCCC3)c(NC(=O)c3c(F)cccc3F)cc21 | -21.65
C=C(C)Cn1c(SCC(=O)Nc2cc(C)ccc2C)nc2sc3c(c2c1=O)CCCC3 | -2.239
CCc1nc2sc3c(N4CCCCC4)ncnc3c2c2c1CCCC2 | -9.441
COc1ccccc1-c1cc(C(=O)NCCc2ccccc2)no1 | 21.59
O=C(Nc1cccc(Cl)c1)c1cc(-c2ccc3c(c2)OCO3)on1 | 57.91
Cc1ccccc1OCCn1c(-c2ccc(Cl)cc2)nc2ccccc2c1=O | -8.879
COc1cccc(N2CCN(C(=O)c3cc4c(=O)n(Cc5ccco5)ccc4nc3C)CC2)c1 | -16.71
CCOc1ccc(NC(=O)c2cc(-c3ccc(C)c(F)c3)on2)c([N+](=O)[O-])c1 | -6.239
CCOc1ccc(Nc2nc3ccccc3c3nnc(CC)n23)cc1 | -25.97
CC(=O)Nc1ccc(S(=O)(=O)N2CCC(n3c(C(F)(F)F)nc4cccnc43)CC2)cc1 | -8.27
CS(=O)(=O)N1CCC(N2CCN(Cc3ccccc3)C(=O)C2=O)CC1 | -17.61
COC(=O)CN1C(=O)CSc2ccc(S(=O)(=O)Nc3cccc(Cl)c3C)cc21 | -46.89
CCc1nnc2c3ccccc3nc(Nc3ccc(F)c(Cl)c3)n12 | -13.16
CCCc1cc(=O)[nH]c(Nc2cc(Cl)cc(Cl)c2)n1 | -94.88
COc1cccc(CN2C(=O)CN(C3CCCCC3)C(=O)C2c2ccc(OC(C)C)c(OC)c2)c1 (stereo not drawn) | 21.73
O=C(CSc1nc2ccccc2nc1Cc1ccc(Cl)cc1)Nc1ccc2c(c1)OCO2 | -8.008
COc1ccccc1CCNC(=O)Cc1c(C)c2c(O)cc(C)cc2oc1=O | -13.58
CC(C)OC(=O)C(C(=O)C(F)(F)F)c1cc(NS(=O)(=O)c2ccc3c4c(cccc24)C(=O)N3)ccc1O (stereo not drawn) | -37.02
CCc1ccc(NC(=O)CN2C(=O)c3cccc4cccc2c34)cc1 | -10.2
CCCCN1C(=O)CN(C2CCCCC2)C(=O)C1c1ccc(OC(C)C)c(OC)c1 (stereo not drawn) | -19.69
Cc1cccc(C)c1NC(=O)CCS(=O)(=O)c1ccc2c(c1)CC(C)N2C(=O)C1CC1 (stereo not drawn) | -50.93
O=C1OC(C(=O)Nc2cc(C(F)(F)F)ccc2Cl)Cc2ccccc21 (stereo not drawn) | -12.03
Cc1ccc(N(C(=O)c2cccc(C)c2)S(=O)(=O)c2ccc(Cl)cc2)cc1 | -58.86
COc1cccc(NC(=O)CSc2nnc(COc3ccc(Cl)cc3)o2)c1 | -8.004
COc1cc(OC)c(NS(=O)(=O)c2ccc3oc(=O)c4ncn(C)c4c3c2)cc1Cl | -7.528
Cc1ccc(CNC(=O)c2cc3c(=O)n(Cc4ccco4)ccc3nc2C)cc1 | -45.6
COc1ccc(-c2cc(C(=O)Nc3cccc(C(C)=O)c3)no2)cc1OC | -4.661
Cc1ccccc1NC(=O)CCc1c(C)nn(-c2ccc(N3CCCCC3)nn2)c1C | -9.498
O=S(=O)(Nc1cccc(-c2ccc(N3CCCCC3)nn2)c1)c1cccc(F)c1 | 16.95
O=c1c(-c2ccc(Cl)cc2)c(C(F)(F)F)oc2c(CN3CCCCC3)c(O)ccc12 | -14.14
CCCCOc1ccc(CNC(=O)Cn2ncn3c(cc4cc(F)ccc43)c2=O)cc1 | -18.33
COC(=O)c1ccc(NC(=O)CC2C(=O)N(c3cccc(C)c3)C(=O)N2C2CCCC2)cc1 (stereo not drawn) | -16.61
Cc1ccc(OCCCSc2nc(-c3ccc(C(C)(C)C)cc3)nc3cc(=O)[nH]n23)cc1C | -19.01
COc1ccc(CCNC(=O)c2cnc3sc(N4CCOCC4)nn3c2=O)cc1OC | -10.97
COC(=O)c1c(NC(=O)C2c3ccccc3Oc3ccccc32)sc2c1CCC(C(C)(C)C)C2 (stereo not drawn) | -8.718
COc1ccc(CN2COc3ccc4c(-c5ccc(OC)cc5)cc(=O)oc4c3C2)cc1 | -15.67
COc1ccc(CNC(=O)CCc2c(C)nn(-c3ccc(N4CCCCC4)nn3)c2C)cc1 | -43.08
O=C(NCc1ccc(F)cc1)C1CCCCN1S(=O)(=O)c1ccc(F)cc1 (stereo not drawn) | -19.19
Cc1ccccc1CSCCNC(=O)C1CCN(S(=O)(=O)Cc2ccccc2)CC1 | -26.35
COCCNC(=O)c1cnc2sc(N3CCC(C)CC3)nn2c1=O | -10.15
COc1ccc2c(c1)CCc1c(C(=O)Nc3ccc(C#N)cc3)noc1-2 | -2.686
CCOC(=O)c1cc(C)n(CC2CCC(C(=O)Nc3cccc(C(C)=O)c3)CC2)c1C (stereo not drawn) | -22.52
CCN(CC)C(=O)c1sc(NC(=O)C2c3ccccc3Oc3ccccc32)c(C(=O)OC(C)C)c1C | -10.69
Cc1ccc(-c2nnc(Nc3ccc(Cl)c(Cl)c3)c3ccccc23)cc1S(=O)(=O)NCCO | -62.91

The last 6 entries again:

SMILES	activity change (%)
Cc1ccccc1CSCCNC(=O)C1CCN(S(=O)(=O)Cc2ccccc2)CC1	-26.35
COCCNC(=O)c1cnc2sc(N3CCC(C)CC3)nn2c1=O	-10.15
COc1ccc2c(c1)CCc1c(C(=O)Nc3ccc(C#N)cc3)noc1-2	-2.686
CCOC(=O)c1cc(C)n(CC2CCC(C(=O)Nc3cccc(C(C)=O)c3)CC2)c1C (stereo not drawn)	-22.52
CCN(CC)C(=O)c1sc(NC(=O)C2c3ccccc3Oc3ccccc32)c(C(=O)OC(C)C)c1C	-10.69
Cc1ccc(-c2nnc(Nc3ccc(Cl)c(Cl)c3)c3ccccc23)cc1S(=O)(=O)NCCO	-62.91